Test results reported in PMC6386760.
These are yes or no findings as the source states them, for the method shown. Binding can be weak; no strength is given. Sequences can lack the tags named with a protein.

B1: OsJAZ3 (Jasmonate Zim-Domain3), yeast two-hybrid fusion (protein, UniProt Q6ZJU3 1-427)
chain: MERDFLGAIWRKEEAAGKPEEHSDYRGGGGGASAAMQWQFPATKVGAASSAFMSFRSSAAAAREEDPKEAAVFDRFSLSGFRPPPRPSPGDAFDGAAAMKQRQFGFNGRQQYAAAAQHGHREQGVDSYGVAAPHHFPSPSPSPRHPVPFGHANPMLRVHSLPNVAGGSPYRNQSFSVGNSVAGSTVGVYGGPRDLQNPKVTQMTIFYDGLVNVFDNIPVEKAQELMLLASRASIPSPPSAARKSDSPISAAAKLTVPEALPARQIVVQKPEASVPLVSGVSNPITIVSQAVTLPKSFSSSNDSAGPKSGGLPLAVTPLSQASPSQPIPVATTNASAIMPRAVPQARKASLARFLEKRKERVSSVAPYPSSKSPLESSDTIGSPSTPSKSSCTDITPSTNNCEDSLCLGQPRNISFSSQEPPSTKLQI
B2: OsJAZ1, yeast two-hybrid fusion (protein, UniProt Q7XPM8 1-216)
chain: MDLLEKKNIKKGGEVEEEVARKGEERKEEEVVVEEKSHQQQQQQGEEELVGLSLAGGRPKVFPMSSPPPNPSQLTIFYGGSVCVYDSVPPEKAQAIMLIAAAAAAAASATKSNAAIAVKPPVMPAANATQAAVSPVLTRSLSLQSTSVATGQPQVAADPSSICKLQADLPIARRHSLQRFLEKRRDRLVSKAPYPTKSSEGMEASGMEVTAEGKAQ
B3: OsJAZ7, yeast two-hybrid fusion (protein, UniProt Q8H395 1-244)
chain: MAASARPVGVGGERATSFAMACSLLSRYVRQNGAAAAELGLGIRGEGEAPRAAPATMSLLPGEAERKKETMELFPQSAGFGQQDAITADSAADAREQEPEKRQLTIFYGGKVLVFNDFPADKAKGLMQLASKGSPVAPQNAAAPAPAAVTDNTKAPMAVPAPVSSLPTAQADAQKPARANASDMPIARKASLHRFLEKRKDRLNAKTPYQASPSDATPVKKEPESQPWLGLGPNAVVKPIERGQ
B4: OsJAZ9, yeast two-hybrid fusion (protein, UniProt Q8GSI0 1-179)
chain: MASTDPMTRRFAVACGVLSQYVKANSSQPSTAAPVAQGVSGLMAAAAAAAAAPVVQEPGCEVDGGGQQFTIFYAGKVVVIDRCTPAMAAELMRFASAAQGGGGAPEAPPALVDMPIARKASLKRFLAKRKATPASARSSYVVRAAAAEEEQPPAKKAKAAVERREDWLALGSLGHMHSR
B5: OsJAZ11, yeast two-hybrid fusion (protein, UniProt Q8GRS2 1-209)
chain: MAGSSEQQLVANAAATTVAGNGSRFAVTCGLLRQYMKEHSGSNGGGGFLPAVTAMSLMTGGADAEEEAPEVRKTMELFPQQAGTLKDTQERKEITEKAQLTIFYGGSVVVFDDFPAEKAGELMKLAGSRDSTAAAAVSDAGAAAGQPCLPDMPIARKVSLQRFLEKRKNRIVVAEPLPESEKKEAESSKRAKKDDGGASWLQVNPTLSL
B6: OsJAZ12, yeast two-hybrid fusion (protein, UniProt Q7XEZ1 1-171)
chain: MAAAGSSSRFAVTCGLLSQYMRERQQPQPPVTVLEAVAEEEEEEDARTMQLFPPRAAAADGVATPSAGTAPLTIFYDGRMVVVDDVPVEKAAELMRLAGSACSPPQPAHAAALPEMPIARKASLQRFLQKRKHRITTTSEPYKKAAVASPAPEKSFAVAPVKDEPATWLGL

What follows are binders tested against OsbHLH96, yeast two-hybrid fusion (rice (Oryza sativa)) (UniProt B7F0D7) (assay: two-hybrid; Gal4 system (pGBKT7 / pGADT7); library screen with pGBKT7-OsHLH61 in AH109 and pairwise tests; growth on SD-LTHA (without Leu, Trp, His, Ade)).

binding | Binder
binds | B1
no binding | B2
no binding | B3
no binding | B4
no binding | B5
no binding | B6
